Values from PubChem BioAssay AID1259308 (NCATS, 2017)
Here is a random part of about 59,000 deposited reagents. In the full data, about 1,510 (2.6%) are marked active. 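Calls use total luciferase alone and ignore viability, so some active siRNAs may act by altering cell number.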 Unmarked entries are inactive. Reagents against one gene are numbered here.

- Purpose: 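Candidate targets for better recombinant protein yield in mammalian cells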 (primary screen)
- Cell system: human HEK293 embryonic kidney cells stably expressing firefly luciferase (HEK-CMV-Luc2-Hygro)
- Knock-down reagent: single siRNA against human genes, 0.8 pmol siRNA per well
- Timing: 72 h
- Measurement: 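Reporter luminescence and viable-cell signal on separate replicate plates, given as percent of non-targeting control and median/MAD z-scores, plus per-cell luciferase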
- Scale: total luciferase, z-score and total luciferase, % of control: higher = more reporter protein produced; luciferase per cell, z-score: higher = more reporter output per viable cell; viable cells, % of control: higher = more viable cells
- Rule for the call: 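Active when the median/MAD z-score for overall luciferase is greater than 3; a gene was taken forward for validation with new siRNAs if at least two of its three siRNAs passed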
- Calls: active = raised luciferase; inactive = no rise

| Gene | siRNA no. | total luciferase, z-score | total luciferase, % of control | luciferase per cell, z-score | viable cells, % of control |
| --- | --- | --- | --- | --- | --- |
| NUDCD2 | 1 | -0.868 | 64.6 | -0.587 | 84.3 |
| NUDCD2 | 2 | 0.103 | 83.9 | 0.699 | 78 |
| NUDCD2 | 3 | -0.39 | 74.1 | -0.633 | 97.8 |
| R3HDM2 | 1 | -0.643 | 69.1 | -0.917 | 98.3 |
| R3HDM2 | 2 | -0.19 | 78.1 | -0.256 | 93.4 |
| R3HDM2 | 3 | 0.986 | 101 | 0.635 | 96 |
| TFDP1 | 1 | -0.0751 | 80.4 | 0.0669 | 88.3 |
| TFDP1 | 2 | -0.888 | 64.2 | -0.689 | 86 |
| TFDP1 | 3 | -0.387 | 74.2 | -0.872 | 104 |
| MESTP3 | 1 | -0.396 | 74 | -0.538 | 95.3 |
| MESTP3 | 2 | -1.04 | 61.3 | 0.599 | 58.5 |
| MESTP3 | 3 | -0.0215 | 81.5 | 0.381 | 82.3 |
| CPA3 | 1 | -1.03 | 61.4 | -1.53 | 103 |
| CPA3 | 2 | -0.941 | 63.2 | -0.889 | 89.2 |
| CPA3 | 3 | -0.649 | 69 | -0.973 | 99.6 |
| PPP1R12B | 1 | 2.81 | 138 | 3.71 | 58 |
| PPP1R12B | 2 | -1.52 | 51.6 | -1.45 | 84.4 |
| PPP1R12B | 3 | -1.14 | 59.2 | -1.45 | 97 |
| ZNF350 | 1 | 1.73 | 116 | 2.73 | 63.3 |
| ZNF350 | 2 | 0.484 | 91.5 | 0.621 | 86.8 |
| ZNF350 | 3 | -0.13 | 79.3 | -0.0754 | 90.4 |
| DNAAF11 | 1 | -0.0958 | 80 | -0.672 | 107 |
| DNAAF11 | 2 | -0.34 | 75.1 | -0.466 | 94.9 |
| DNAAF11 | 3 | 0.127 | 84.4 | 0.0545 | 93 |
| NUDT8 | 1 | -0.165 | 78.6 | -0.516 | 101 |
| NUDT8 | 2 | -1.27 | 56.7 | -1.53 | 94.6 |
| NUDT8 | 3 | -0.796 | 66.1 | -0.352 | 81 |
| EXOC5 | 1 | 1.64 | 115 | 0.729 | 106 |
| EXOC5 | 2 | -0.0556 | 80.8 | -0.0984 | 92.6 |
| EXOC5 | 3 | 1.99 | 121 | 1.48 | 91.8 |
| NPC2 | 1 | -0.166 | 78.6 | -1.07 | 117 |
| NPC2 | 2 | -0.112 | 79.7 | -0.301 | 96.4 |
| NPC2 | 3 | -0.644 | 69.1 | 0.158 | 74 |

Copied from the listing, 3 entries:
| Gene | siRNA no. | total luciferase, z-score | total luciferase, % of control | luciferase per cell, z-score | viable cells, % of control |
| --- | --- | --- | --- | --- | --- |
| EXOC5 | 2 | -0.0556 | 80.8 | -0.0984 | 92.6 |
| EXOC5 | 3 | 1.99 | 121 | 1.48 | 91.8 |
| NPC2 | 1 | -0.166 | 78.6 | -1.07 | 117 |

The results go on:
| Gene | siRNA no. | total luciferase, z-score | total luciferase, % of control | luciferase per cell, z-score | viable cells, % of control |
| --- | --- | --- | --- | --- | --- |
| RAPGEF2 | 1 | 0.813 | 98.1 | 0.638 | 92.6 |
| RAPGEF2 | 2 | -2.08 | 40.6 | -2.6 | 90.1 |
| RAPGEF2 | 3 | -0.303 | 75.9 | 1.8 | 52.7 |
| SCIMP | 1 | -1.73 | 47.5 | -1.57 | 80.3 |
| SCIMP | 2 | 0.897 | 99.7 | 1.44 | 76.2 |
| SCIMP | 3 | -0.518 | 71.6 | -0.716 | 96.6 |
| RSPO4 | 1 | -0.95 | 63 | -0.263 | 75.4 |
| RSPO4 | 2 | 2.5 | 132 | 1.89 | 89.3 |
| RSPO4 | 3 | -2.11 | 39.9 | -0.929 | 56.9 |
| INSYN1 | 1 | 0.113 | 84.1 | 0.359 | 85.5 |
| INSYN1 | 2 | 1.83 | 118 | 1.3 | 93.9 |
| INSYN1 | 3 | 0.373 | 89.3 | -0.0291 | 101 |
| PTBP1 | 1 | 1.89 | 119 | 1.38 | 92.9 |
| PTBP1 | 2 | 0.489 | 91.6 | -0.271 | 110 |
| PTBP1 | 3 | 1.15 | 105 | 0.669 | 98.2 |
| UPF3B | 1 | -0.391 | 74.1 | -0.88 | 104 |
| UPF3B | 2 | -0.377 | 74.4 | -0.843 | 104 |
| UPF3B | 3 | 0.143 | 84.7 | -0.59 | 111 |
| F13B | 1 | -0.451 | 72.9 | -0.375 | 89.9 |
| F13B | 2 | -0.254 | 76.8 | -0.556 | 99.4 |
| F13B | 3 | 0.245 | 86.8 | 0.442 | 86.3 |
| MLLT3 | 1 | -1.79 | 46.2 | -2.53 | 101 |
| MLLT3 | 2 | 0.147 | 84.8 | 0.00848 | 94.6 |
| MLLT3 | 3 | -0.53 | 71.3 | -0.647 | 94.5 |
